The supplement of paper PMC10060354, “Discovery of a small molecule ligand of FRS2 that inhibits invasion and tumor growth” (Cellular Oncology, 2022)

Chains of the proteins cited; added tags and fusions are not shown. Lines headed by an entry give the natural chain unless they say otherwise; changes in a name come on top.
UniProt Q96D05: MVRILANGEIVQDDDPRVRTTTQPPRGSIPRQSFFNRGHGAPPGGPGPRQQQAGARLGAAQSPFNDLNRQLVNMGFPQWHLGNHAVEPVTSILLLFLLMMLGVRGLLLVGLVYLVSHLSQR
UniProt P52333: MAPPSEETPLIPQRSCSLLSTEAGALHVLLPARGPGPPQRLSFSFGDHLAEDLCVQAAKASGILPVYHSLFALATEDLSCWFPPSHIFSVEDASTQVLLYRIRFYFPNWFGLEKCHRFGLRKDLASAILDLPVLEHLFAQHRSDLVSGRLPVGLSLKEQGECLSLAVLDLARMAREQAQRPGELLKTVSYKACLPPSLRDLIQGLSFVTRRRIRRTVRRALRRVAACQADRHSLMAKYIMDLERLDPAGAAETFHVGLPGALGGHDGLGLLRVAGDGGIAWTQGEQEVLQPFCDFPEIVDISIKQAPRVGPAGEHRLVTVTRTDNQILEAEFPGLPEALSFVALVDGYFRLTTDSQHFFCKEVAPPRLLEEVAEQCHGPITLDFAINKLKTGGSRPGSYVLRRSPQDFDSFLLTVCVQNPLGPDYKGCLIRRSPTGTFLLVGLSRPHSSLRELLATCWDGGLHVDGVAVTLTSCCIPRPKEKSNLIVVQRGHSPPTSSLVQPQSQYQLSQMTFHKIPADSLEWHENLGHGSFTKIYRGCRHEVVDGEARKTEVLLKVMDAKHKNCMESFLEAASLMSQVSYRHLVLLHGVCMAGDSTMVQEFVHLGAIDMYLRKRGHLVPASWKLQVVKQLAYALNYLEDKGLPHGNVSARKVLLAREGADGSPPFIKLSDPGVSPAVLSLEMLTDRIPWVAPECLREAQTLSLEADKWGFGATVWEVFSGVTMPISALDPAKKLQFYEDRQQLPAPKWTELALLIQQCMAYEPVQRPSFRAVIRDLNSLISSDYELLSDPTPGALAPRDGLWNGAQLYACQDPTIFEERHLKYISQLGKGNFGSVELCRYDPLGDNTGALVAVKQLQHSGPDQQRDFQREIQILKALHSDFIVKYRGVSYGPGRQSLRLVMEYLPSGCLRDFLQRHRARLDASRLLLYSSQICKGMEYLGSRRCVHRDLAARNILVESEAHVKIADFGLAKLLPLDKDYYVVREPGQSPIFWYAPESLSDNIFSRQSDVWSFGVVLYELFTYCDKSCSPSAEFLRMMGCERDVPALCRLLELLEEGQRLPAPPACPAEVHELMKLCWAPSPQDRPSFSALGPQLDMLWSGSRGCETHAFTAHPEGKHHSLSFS
UniProt Q8N5M9: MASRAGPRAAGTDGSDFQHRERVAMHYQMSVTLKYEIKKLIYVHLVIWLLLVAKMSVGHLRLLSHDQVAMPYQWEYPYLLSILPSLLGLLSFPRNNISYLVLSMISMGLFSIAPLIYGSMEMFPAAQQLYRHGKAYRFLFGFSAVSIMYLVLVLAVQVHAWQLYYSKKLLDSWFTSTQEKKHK
UniProt Q15596: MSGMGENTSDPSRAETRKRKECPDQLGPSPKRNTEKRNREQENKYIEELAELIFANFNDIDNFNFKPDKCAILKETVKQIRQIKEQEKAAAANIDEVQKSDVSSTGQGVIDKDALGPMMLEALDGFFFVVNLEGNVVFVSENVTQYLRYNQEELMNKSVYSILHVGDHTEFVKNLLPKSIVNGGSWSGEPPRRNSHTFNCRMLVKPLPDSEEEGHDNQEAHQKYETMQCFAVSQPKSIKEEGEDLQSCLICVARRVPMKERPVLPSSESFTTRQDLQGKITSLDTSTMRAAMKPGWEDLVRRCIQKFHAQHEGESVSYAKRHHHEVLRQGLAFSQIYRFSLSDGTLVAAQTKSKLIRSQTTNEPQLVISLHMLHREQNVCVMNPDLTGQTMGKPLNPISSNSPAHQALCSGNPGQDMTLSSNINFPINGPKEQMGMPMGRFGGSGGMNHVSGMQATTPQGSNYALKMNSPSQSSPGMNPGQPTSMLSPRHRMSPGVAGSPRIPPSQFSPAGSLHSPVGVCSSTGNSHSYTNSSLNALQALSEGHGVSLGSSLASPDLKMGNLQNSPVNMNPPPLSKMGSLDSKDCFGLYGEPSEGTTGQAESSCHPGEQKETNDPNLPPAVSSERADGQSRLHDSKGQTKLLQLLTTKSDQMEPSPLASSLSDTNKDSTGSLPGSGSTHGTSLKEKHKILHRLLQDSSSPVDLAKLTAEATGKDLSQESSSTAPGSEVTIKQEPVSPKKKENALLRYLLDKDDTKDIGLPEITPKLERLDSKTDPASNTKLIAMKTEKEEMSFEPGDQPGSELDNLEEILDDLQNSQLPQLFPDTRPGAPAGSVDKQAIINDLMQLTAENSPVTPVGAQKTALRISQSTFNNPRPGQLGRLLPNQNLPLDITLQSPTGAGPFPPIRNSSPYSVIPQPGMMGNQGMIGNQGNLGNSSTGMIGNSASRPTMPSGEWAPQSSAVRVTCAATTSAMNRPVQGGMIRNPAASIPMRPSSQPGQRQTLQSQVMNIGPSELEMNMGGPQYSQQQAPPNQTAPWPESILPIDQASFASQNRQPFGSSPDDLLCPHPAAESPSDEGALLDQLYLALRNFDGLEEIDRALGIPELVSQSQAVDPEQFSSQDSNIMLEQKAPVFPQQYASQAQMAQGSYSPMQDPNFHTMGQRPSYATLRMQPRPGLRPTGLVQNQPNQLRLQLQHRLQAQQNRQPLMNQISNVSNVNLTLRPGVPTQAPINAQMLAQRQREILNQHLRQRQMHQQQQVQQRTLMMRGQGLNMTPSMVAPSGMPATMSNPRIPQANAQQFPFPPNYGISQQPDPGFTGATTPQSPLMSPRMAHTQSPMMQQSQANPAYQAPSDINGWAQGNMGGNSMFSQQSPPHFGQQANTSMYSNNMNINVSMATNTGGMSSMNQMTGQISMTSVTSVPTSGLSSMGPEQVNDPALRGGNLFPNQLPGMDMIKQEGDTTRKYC
UniProt Q9Y3B8: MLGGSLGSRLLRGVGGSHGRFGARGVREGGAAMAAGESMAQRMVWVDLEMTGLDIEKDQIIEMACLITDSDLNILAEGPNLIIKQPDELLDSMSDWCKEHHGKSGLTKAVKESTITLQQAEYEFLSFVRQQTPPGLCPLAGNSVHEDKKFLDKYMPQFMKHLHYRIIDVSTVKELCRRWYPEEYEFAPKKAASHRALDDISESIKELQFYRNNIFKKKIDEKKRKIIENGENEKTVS
UniProt Q9NYV6: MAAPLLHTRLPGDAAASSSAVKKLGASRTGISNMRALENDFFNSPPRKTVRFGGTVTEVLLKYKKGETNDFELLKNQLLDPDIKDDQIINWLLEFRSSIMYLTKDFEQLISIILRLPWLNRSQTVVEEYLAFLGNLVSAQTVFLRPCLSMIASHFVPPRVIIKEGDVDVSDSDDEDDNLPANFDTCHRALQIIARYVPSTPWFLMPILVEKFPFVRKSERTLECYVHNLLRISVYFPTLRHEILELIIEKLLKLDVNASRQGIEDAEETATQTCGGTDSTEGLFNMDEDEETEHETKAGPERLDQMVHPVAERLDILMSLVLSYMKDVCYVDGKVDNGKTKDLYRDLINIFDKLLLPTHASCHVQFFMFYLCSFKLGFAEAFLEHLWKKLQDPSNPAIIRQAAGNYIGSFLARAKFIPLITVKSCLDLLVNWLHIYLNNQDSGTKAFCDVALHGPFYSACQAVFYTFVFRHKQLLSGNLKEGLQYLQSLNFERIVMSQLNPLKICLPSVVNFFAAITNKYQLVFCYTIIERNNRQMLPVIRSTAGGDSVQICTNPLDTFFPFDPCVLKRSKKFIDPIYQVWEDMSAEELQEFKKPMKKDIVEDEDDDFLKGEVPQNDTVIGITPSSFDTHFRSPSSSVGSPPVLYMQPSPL
UniProt Q08043, whole entry: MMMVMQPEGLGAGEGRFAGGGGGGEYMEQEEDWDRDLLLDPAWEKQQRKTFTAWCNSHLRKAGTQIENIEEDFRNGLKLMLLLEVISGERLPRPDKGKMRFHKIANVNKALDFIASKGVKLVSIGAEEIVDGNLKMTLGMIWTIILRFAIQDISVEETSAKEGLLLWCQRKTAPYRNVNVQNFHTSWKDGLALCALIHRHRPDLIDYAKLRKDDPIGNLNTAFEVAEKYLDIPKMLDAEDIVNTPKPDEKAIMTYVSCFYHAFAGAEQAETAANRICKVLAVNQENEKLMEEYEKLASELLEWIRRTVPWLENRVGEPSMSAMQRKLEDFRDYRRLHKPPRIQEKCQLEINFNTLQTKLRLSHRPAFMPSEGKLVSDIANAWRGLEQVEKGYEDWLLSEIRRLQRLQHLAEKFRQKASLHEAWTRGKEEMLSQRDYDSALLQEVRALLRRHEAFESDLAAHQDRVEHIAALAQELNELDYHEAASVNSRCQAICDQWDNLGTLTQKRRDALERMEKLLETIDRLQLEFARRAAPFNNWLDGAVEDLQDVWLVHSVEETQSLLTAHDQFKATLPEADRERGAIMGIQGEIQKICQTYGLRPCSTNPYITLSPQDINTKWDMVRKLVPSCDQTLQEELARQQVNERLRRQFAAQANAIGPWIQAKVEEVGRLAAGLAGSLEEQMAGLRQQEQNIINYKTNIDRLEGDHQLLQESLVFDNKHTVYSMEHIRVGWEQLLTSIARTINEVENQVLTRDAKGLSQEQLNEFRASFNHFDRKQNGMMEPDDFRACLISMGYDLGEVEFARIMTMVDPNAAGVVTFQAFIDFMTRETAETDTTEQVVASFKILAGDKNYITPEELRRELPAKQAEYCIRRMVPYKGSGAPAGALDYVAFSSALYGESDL
UniProt Q04864: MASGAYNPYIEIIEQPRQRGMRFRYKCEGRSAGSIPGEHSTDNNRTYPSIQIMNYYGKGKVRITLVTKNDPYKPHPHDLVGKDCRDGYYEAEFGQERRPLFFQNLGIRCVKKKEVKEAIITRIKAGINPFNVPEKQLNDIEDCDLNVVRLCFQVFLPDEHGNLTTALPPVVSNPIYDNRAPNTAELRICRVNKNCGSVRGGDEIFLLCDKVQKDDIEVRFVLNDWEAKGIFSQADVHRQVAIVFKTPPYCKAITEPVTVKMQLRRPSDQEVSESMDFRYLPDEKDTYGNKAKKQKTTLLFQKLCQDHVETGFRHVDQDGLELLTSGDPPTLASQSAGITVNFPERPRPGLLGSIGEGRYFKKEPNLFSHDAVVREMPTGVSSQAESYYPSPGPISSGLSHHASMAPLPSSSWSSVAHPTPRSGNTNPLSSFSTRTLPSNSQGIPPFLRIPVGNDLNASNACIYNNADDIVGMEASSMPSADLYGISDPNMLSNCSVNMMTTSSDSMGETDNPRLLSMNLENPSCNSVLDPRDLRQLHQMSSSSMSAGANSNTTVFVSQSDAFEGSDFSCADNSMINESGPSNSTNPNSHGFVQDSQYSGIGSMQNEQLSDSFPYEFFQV
UniProt Q16625: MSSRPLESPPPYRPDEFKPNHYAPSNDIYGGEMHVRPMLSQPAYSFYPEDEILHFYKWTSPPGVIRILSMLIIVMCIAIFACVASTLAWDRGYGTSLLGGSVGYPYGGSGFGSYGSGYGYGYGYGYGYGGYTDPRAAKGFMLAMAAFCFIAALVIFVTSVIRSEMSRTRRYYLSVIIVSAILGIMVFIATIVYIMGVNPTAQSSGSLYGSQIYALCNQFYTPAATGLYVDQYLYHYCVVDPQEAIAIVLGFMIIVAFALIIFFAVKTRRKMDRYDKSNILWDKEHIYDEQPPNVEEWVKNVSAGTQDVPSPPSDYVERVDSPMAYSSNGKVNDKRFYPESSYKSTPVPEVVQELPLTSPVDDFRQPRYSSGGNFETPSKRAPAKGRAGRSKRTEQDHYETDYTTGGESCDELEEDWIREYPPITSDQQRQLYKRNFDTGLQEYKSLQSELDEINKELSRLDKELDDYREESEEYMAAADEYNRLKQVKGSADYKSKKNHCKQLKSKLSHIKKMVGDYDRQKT
UniProt Q96F85: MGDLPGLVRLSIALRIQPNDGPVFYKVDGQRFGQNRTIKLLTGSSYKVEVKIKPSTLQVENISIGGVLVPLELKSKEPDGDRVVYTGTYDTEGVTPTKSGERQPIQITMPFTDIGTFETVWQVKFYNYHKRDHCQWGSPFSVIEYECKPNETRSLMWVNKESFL
UniProt Q9BWH2: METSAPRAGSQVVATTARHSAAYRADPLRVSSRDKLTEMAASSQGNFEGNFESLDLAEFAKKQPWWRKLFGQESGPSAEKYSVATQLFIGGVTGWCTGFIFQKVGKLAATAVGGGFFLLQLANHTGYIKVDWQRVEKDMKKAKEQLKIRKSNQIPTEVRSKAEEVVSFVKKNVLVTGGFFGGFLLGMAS
UniProt P08174: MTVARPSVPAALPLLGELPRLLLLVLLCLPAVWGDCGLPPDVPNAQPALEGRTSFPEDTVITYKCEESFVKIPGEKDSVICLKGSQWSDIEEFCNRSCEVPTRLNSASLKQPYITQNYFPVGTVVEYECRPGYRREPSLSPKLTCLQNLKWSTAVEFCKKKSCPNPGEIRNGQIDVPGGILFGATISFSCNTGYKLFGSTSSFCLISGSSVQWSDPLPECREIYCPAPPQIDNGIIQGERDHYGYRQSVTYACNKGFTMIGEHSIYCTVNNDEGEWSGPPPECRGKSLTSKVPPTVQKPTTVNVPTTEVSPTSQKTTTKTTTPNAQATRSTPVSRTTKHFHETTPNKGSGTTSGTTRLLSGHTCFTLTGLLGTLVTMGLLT

Compound: [O-][N+](C(C1=C(C(O)=C2)NC(C(C=C3)=CC=C3Cl)C4C1C=CC4)=C2Cl)=O
Assay: melting temperature shift (compound 7 minus DMSO); higher = compound stabilises the protein
Details: 10 µM
Method: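 Thermal proteome profiling (TMT mass spectrometry) in intact DAOY medulloblastoma cells or DAOY lysates treated with 10 µM compound 7 or DMSO, heated at 10 temperatures from 40.5 to 73.8 °C for 3 min. Melting curves were fitted with the Bioconductor TPP package, and the melting point difference between compound and vehicle is reported per protein (single curve per condition).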

[1] = system: intact DAOY cells, treatment time: 90 min, 37 °C
[2] = system: DAOY cell lysate, treatment time: 20 min, 4 °C

Row | Target | melting temperature shift [1] [°C] | melting temperature shift [2] [°C]
1 | LRP8 (UniProt Q14114) | 0.678 | 
2 | UniProt Q96D05 |  | 2.49
3 | JAK3 (UniProt P52333) |  | 1.69
4 | UniProt Q92959 | -2.5 | 3.17
5 | SUMF2 (UniProt Q8NBJ7) | 1.11 | 1.15
6 | PRPF8 (UniProt Q6P2Q9) | 0.285 | -0.174
7 | MAPKAPK2 (UniProt P49137) | 0.054 | -0.841
8 | CENPF (UniProt P49454) | 0.408 | -1.27
9 | TARSL2 (UniProt A2RTX5) | 1.28 | 
10 | TAGLN2 (UniProt P37802) | -0.665 | -1.12
11 | UniProt Q8N5M9 | -4.38 | 0.809
12 | NCOA2 (UniProt Q15596) |  | 2.21
13 | FDPS (UniProt P14324) | 0.404 | -1.1
14 | BOD1L1 (UniProt Q8NFC6) |  | -2.71
15 | NUP54 (UniProt Q7Z3B4) | 1.29 | -0.569
16 | REXO2 (UniProt Q9Y3B8) |  | 0.345
17 | RRN3 (UniProt Q9NYV6) | 1.06 | -0.557
18 | UniProt Q08043 | -0.2 | 
19 | REL (UniProt Q04864) |  | -1.37
20 | CAPZA2 (UniProt P47755) | 0.172 | -0.663
21 | DIAPH1 (UniProt O60610) | 0.245 | -0.482
22 | GLG1 (UniProt Q92896) | 2.7 | 2.06
23 | UniProt Q16625 |  | 4.03

Laid out differently: results already given
UniProt Q92959
  melting temperature shift [1] [°C] = -2.5; melting temperature shift [2] [°C] = 3.17
SUMF2 (UniProt Q8NBJ7)
  melting temperature shift [1] [°C] = 1.11; melting temperature shift [2] [°C] = 1.15

Additional records follow.

Row | Target | melting temperature shift [1] [°C] | melting temperature shift [2] [°C]
24 | UniProt Q96F85 | 0.0807 | -1.27
25 | TUBGCP4 (UniProt Q9UGJ1) |  | 0.111
26 | MTMR14 (UniProt Q8NCE2) |  | -0.455
27 | FUNDC2 (UniProt Q9BWH2) |  | -3.38
28 | TACC3 (UniProt Q9Y6A5) |  | -3.33
29 | ZNF706 (UniProt Q9Y5V0) |  | -0.247
30 | HNRNPR (UniProt O43390) | -0.577 | 0.664
31 | UniProt Q9BXX3 | -0.753 | 
32 | LRRC59 (UniProt Q96AG4) | -0.312 | 2.23
33 | CETN2 (UniProt P41208) |  | -1.09
34 | UniProt Q4KWH8 | -0.144 | 0.704
35 | IDH2 (UniProt P48735) | -1.81 | -0.555
36 | VPS72 (UniProt Q15906) | 2.27 | -0.271
37 | UniProt Q12765 | 0.774 | 0.36
38 | H2AFX (UniProt P16104) | -0.0251 | 
39 | SLC2A3 (UniProt P11169) |  | 2.32
40 | UniProt Q96JB3 | -4.07 | 1.04
41 | CD55 (UniProt P08174) | 2.06 | -0.967
42 | RTF1 (UniProt Q92541) | -0.265 | -1.01
43 | UniProt Q9Y244 | 2.41 | 0.33
44 | CTNNAL1 (UniProt Q9UBT7) |  | 0.68
45 | APOL2 (UniProt Q9BQE5) | -1.35 | 1.96

Repeats are few or missing, and single values can be far off.
